Substitutions are numbered along the chain they refer to. Numbers in names are those of the source. These are yes or no findings as the source states them, for the method shown.
Key:
[1] = molecular target: Thermoproteus tenax Csa5 wild type (TTX_1250) (Thermoproteus tenax Kra1) (UniProt G4RJZ0); experiment: SDS-PAGE of SDS-stable oligomers; freshly purified protein incubated for 1 h at 0°C, 37°C, 70°C, 90°C; both purified
[2] = molecular target: Thermoproteus tenax Csa5 wild type (TTX_1250) (Thermoproteus tenax Kra1) (UniProt G4RJZ0); experiment: SEC; freshly purified protein, 1–3.25 mg on Superdex 200 10/300GL in purification buffer (100 mM HEPES/KOH pH 7, 10% glycerol, 10 mM β-Me, 300 mM NaCl); size from calibration proteins; both purified
[3] = molecular target: Thermoproteus tenax Csa5 wild type (TTX_1250) (Thermoproteus tenax Kra1) (UniProt G4RJZ0); experiment: SEC; three-month old protein solution, 1–3.25 mg on Superdex 200 10/300GL in purification buffer (100 mM HEPES/KOH pH 7, 10% glycerol, 10 mM β-Me, 300 mM NaCl); size from calibration proteins; both purified
[4] = molecular target: Thermoproteus tenax Csa5 wild type (TTX_1250) (Thermoproteus tenax Kra1) (UniProt G4RJZ0); experiment: SDS-PAGE of SDS-stable oligomers; purified protein stored at 4°C for 1, 2, 4, 8 and 16 weeks; identity by mass spectrometry; nine-month old solution also after 6 M GdmCl (RT or 95°C) or 120°C in SDS-buffer; both purified
[5] = molecular target: Thermoproteus tenax Csa5 D33A (Thermoproteus tenax Kra1) (UniProt G4RJZ0); experiment: SEC; three-month old protein solution, 1–3.25 mg on Superdex 200 10/300GL in purification buffer (100 mM HEPES/KOH pH 7, 10% glycerol, 10 mM β-Me, 300 mM NaCl); size from calibration proteins; both purified
[6] = molecular target: Thermoproteus tenax Csa5 D30A/D33A (Thermoproteus tenax Kra1) (UniProt G4RJZ0); experiment: SDS-PAGE of SDS-stable oligomers; freshly purified protein incubated for 1 h at 0°C, 37°C, 70°C, 90°C; both purified

B1: Thermoproteus tenax Csa5 wild type (TTX_1250) (natural protein, Thermoproteus tenax Kra1, UniProt G4RJZ0 1-130, looked up)
chain: MESVQLKKEELVERAARSVRPAVHLEMAYDVLDELSRSPEKYPEQLAKLSRIVVKVLNDVEDELEHNPQNEELQKARNRLAAWGGYVAELAKRLEEADDRERIRMVRLFCAMALAPDKLTVELKKLLKGR
notes: Csa5 (Csa5b), small subunit of the type I-A Cascade, Thermoproteus tenax Kra1, locus TTX_1250; theoretical mass of the monomer 15.04 kDa; no tag is named and the purification uses none; also called Csa5 WT; Csa5b; source: E. coli Rosetta(DE3)pLysS, purified (heat precipitation 90°C, Blue-Sepharose, MonoQ)
[1]
  binding: no binding
[2]
  binding: no binding (tested: 1–3.25 mg protein)
[3]
  binding: no binding
[4]
  binding: no binding

B2: Thermoproteus tenax Csa5 D33A (natural protein, Thermoproteus tenax Kra1, UniProt G4RJZ0 1-130, looked up)
chain: B1 chain with D33A
notes: Made by site-directed mutagenesis of the pET24a csa5 construct; source: E. coli Rosetta(DE3)pLysS, purified (heat precipitation 90°C, Blue-Sepharose, MonoQ)
[5]
  binding: no binding

B3: Thermoproteus tenax Csa5 D30A/D33A (natural protein, Thermoproteus tenax Kra1, UniProt G4RJZ0 1-130, looked up)
chain: B1 chain with D30A, D33A
notes: as for B2
[6]
  binding: no binding
